Like-named read-outs stand apart in the source and are kept apart here. No constants are given. Whether binding was seen depends on the method and setting. In cells and extracts the contact can be indirect. Some entries that bind do so weakly or less than the wild type. For some assays here: Tags and fused reporters may be left off the sequences shown.
T1: V5-tagged Zfp609 (mouse) (UniProt Q8BZ47)
T1 sequence: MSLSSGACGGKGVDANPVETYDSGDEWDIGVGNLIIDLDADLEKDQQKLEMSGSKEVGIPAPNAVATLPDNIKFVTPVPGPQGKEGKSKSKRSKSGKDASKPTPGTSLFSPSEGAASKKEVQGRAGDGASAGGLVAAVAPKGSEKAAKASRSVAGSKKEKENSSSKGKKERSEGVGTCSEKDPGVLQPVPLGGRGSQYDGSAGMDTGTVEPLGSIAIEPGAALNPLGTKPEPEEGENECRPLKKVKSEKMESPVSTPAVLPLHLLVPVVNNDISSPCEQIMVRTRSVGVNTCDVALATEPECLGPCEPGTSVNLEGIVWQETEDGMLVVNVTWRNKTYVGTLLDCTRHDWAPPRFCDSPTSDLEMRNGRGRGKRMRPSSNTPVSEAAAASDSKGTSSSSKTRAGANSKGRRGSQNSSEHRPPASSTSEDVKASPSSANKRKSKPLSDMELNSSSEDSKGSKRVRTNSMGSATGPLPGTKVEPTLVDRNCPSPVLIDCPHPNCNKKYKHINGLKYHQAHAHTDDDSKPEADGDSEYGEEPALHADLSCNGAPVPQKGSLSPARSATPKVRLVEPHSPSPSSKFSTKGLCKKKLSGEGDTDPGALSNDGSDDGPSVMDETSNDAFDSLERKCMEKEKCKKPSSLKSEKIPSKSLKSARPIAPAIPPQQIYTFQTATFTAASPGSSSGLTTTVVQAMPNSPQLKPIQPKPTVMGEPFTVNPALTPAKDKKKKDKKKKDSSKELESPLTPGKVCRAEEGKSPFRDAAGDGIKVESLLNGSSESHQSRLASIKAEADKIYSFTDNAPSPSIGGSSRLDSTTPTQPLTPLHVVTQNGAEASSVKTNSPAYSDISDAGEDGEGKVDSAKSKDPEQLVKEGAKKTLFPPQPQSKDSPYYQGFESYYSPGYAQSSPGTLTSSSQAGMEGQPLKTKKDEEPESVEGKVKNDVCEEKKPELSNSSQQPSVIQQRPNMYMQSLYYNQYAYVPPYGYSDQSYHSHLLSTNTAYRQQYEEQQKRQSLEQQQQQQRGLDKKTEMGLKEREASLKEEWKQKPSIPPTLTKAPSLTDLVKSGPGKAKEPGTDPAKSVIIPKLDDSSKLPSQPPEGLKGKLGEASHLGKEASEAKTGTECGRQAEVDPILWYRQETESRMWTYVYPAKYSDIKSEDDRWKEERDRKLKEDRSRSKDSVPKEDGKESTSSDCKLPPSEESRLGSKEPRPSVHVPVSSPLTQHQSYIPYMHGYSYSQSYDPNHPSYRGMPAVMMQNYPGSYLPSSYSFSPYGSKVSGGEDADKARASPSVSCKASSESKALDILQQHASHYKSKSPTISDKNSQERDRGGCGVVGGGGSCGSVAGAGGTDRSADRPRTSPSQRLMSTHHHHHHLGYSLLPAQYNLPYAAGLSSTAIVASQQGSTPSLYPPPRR

Amino acid sequences for entries named in this document (tags omitted).
UniProt Q6P4S8: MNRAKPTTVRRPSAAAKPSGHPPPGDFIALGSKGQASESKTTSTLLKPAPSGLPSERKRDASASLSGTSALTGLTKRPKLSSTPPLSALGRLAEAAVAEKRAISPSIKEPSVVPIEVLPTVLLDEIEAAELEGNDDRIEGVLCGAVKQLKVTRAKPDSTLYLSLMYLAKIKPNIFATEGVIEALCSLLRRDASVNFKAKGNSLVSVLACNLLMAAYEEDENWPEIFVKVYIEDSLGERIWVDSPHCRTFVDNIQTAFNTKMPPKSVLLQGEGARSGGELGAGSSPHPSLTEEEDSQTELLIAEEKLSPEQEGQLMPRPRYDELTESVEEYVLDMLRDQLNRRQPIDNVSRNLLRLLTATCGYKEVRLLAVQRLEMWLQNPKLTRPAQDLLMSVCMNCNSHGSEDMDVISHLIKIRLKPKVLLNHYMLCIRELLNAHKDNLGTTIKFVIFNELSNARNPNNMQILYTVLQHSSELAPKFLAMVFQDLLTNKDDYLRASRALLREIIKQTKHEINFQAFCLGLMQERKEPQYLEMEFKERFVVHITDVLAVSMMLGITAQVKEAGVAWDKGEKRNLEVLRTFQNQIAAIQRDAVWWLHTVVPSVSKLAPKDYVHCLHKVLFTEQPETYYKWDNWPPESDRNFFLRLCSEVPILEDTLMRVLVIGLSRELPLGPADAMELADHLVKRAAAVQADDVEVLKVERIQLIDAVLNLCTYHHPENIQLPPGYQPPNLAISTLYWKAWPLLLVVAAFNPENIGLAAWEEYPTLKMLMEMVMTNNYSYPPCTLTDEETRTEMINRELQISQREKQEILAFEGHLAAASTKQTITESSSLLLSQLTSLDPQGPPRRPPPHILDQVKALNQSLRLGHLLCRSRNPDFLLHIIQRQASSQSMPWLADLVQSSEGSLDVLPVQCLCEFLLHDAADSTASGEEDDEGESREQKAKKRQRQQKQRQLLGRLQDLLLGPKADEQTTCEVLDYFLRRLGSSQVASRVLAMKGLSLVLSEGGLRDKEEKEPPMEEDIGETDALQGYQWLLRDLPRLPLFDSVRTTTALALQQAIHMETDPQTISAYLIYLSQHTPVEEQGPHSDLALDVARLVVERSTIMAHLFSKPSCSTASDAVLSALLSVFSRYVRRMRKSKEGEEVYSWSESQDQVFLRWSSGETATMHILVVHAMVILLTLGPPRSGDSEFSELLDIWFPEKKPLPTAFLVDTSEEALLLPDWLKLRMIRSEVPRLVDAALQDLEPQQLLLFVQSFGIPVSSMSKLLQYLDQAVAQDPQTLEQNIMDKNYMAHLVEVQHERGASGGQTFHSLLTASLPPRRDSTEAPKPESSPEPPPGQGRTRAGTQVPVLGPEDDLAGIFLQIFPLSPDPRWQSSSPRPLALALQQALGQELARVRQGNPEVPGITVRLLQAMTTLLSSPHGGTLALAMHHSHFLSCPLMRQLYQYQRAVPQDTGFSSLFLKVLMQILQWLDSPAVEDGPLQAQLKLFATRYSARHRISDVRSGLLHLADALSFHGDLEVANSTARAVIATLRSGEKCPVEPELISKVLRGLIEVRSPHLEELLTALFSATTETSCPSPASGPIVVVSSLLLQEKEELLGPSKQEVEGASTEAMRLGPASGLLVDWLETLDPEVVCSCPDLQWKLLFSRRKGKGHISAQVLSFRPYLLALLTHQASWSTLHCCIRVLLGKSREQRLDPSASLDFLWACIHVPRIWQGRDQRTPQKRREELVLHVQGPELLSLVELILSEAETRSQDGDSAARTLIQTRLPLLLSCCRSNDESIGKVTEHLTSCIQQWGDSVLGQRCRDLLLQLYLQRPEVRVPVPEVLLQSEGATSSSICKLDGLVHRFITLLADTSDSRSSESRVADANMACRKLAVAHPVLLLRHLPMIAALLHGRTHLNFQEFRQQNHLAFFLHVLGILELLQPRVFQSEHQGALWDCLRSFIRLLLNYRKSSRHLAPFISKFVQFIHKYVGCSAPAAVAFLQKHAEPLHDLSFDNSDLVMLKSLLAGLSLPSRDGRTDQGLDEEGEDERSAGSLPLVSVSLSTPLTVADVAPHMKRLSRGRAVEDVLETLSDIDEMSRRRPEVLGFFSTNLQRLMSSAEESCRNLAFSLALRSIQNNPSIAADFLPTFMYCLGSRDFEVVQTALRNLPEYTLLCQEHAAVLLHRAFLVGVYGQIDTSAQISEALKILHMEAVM
UniProt Q6KCD5: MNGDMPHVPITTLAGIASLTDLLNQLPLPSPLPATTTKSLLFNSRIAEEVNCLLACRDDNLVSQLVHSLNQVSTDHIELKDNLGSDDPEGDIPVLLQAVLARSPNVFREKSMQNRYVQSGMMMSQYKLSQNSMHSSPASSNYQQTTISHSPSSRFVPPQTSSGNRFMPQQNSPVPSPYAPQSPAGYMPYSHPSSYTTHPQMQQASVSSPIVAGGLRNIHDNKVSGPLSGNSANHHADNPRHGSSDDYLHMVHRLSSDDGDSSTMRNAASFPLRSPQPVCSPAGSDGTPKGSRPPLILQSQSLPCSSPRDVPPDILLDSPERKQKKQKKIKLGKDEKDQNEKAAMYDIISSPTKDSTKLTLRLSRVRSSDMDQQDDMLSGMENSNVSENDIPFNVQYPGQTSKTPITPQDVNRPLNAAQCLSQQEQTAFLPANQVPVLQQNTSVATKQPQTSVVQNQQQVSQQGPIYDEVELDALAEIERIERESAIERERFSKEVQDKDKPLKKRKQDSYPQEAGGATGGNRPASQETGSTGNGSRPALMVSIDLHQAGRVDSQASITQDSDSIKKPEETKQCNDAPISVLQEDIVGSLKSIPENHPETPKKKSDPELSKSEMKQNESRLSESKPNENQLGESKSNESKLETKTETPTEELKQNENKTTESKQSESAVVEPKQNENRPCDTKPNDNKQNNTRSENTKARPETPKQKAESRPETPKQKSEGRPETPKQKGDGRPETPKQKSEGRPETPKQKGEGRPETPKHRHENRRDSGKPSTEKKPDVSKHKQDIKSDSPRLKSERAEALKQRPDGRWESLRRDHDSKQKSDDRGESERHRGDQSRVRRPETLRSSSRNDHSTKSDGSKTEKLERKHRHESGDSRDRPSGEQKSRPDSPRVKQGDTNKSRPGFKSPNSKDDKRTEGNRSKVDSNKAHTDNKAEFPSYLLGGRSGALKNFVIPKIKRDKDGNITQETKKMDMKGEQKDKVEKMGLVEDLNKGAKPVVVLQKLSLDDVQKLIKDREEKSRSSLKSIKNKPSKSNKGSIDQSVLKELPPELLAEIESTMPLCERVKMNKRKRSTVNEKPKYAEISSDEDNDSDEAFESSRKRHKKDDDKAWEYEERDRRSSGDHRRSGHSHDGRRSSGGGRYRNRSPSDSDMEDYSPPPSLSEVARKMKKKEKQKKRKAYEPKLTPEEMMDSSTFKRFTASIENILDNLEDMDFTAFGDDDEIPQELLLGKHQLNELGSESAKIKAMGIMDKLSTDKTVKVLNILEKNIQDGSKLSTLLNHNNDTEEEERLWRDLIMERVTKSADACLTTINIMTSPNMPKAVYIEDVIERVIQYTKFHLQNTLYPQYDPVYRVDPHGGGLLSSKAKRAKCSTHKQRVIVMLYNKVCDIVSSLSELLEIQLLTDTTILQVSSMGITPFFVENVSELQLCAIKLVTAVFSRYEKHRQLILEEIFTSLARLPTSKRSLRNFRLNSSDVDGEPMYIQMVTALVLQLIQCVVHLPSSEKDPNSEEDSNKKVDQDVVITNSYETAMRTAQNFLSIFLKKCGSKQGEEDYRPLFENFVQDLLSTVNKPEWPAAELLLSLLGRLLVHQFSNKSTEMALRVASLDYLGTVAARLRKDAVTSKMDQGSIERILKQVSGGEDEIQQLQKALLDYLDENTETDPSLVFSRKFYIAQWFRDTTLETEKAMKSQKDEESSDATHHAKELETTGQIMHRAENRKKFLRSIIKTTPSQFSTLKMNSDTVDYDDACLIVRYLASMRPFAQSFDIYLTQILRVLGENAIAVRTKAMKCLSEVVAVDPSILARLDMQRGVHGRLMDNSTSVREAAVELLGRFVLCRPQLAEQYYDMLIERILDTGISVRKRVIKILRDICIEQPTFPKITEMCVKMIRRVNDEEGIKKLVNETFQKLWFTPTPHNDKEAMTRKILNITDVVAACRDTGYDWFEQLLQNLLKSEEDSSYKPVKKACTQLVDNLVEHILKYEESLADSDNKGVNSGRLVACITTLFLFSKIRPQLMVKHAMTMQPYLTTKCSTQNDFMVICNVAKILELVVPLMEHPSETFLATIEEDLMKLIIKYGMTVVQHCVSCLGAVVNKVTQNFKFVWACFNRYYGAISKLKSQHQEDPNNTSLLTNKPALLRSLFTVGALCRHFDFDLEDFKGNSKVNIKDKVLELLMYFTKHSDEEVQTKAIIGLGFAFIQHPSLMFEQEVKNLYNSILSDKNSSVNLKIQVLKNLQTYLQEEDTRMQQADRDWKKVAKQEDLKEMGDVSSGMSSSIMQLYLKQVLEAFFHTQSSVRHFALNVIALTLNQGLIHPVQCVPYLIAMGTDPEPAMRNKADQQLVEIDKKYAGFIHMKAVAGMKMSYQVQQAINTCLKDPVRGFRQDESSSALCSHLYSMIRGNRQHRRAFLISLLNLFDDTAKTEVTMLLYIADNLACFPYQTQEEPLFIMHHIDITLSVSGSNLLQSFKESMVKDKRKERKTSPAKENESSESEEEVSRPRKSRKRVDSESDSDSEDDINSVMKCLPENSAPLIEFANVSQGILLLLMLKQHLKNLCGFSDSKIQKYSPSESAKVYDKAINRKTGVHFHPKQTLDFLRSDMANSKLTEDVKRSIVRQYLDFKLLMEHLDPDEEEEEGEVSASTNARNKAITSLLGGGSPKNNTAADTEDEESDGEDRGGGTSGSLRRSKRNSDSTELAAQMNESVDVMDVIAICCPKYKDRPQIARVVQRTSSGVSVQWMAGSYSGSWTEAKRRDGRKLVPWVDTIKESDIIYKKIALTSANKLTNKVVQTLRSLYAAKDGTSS
UniProt Q9CWS4: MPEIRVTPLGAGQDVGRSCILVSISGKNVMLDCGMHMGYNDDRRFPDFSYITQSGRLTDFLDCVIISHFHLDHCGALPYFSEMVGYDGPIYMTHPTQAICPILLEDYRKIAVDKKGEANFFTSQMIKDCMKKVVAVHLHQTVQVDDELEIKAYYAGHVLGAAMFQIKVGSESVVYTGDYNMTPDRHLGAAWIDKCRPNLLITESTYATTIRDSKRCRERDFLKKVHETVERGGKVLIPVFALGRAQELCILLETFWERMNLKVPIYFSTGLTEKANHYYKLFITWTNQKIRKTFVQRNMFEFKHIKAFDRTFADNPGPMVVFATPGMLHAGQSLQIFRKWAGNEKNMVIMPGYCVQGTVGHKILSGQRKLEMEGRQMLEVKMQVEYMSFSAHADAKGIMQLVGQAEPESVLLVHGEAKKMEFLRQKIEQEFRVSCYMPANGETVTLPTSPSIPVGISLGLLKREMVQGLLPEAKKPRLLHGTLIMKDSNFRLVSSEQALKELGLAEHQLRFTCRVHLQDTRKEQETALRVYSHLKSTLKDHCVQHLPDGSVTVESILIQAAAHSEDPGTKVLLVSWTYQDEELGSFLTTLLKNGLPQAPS

B1: Smc1a (protein, UniProt Q9CU62 1-1233)
chain: MGFLKLIEIENFKSYKGRQIIGPFQRFTAIIGPNGSGKSNLMDAISFVLGEKTSNLRVKTLRDLIHGAPVGKPAANRAFVSMVYSEEGAEDRTFARVIVGGSSEYKINNKVVQLHEYSEELEKLGILIKARNFLVFQGAVESIAMKNPKERTALFEEISRSGELAQEYDKRKKEMVKAEEDTQFNYHRKKNIAAERKEAKQEKEEADRYQRLKDEVVRAQVQLQLFKLYHNEVEIEKLNKELASKNKEIEKDKKRMDKVEDELKEKKKELGKMMREQQQIEKEIKEKDSELNQKRPQYIKAKENTSHKIKKLEAAKKSLQNAQKHYKKRKGDMDELEKEMLSVEKARQEFEERMEEESQSQGRDLTLEENQVKKYHRLKEEASKRAATLAQELEKFNRDQKADQDRLDLEERKKVETEAKIKQKLREIEENQKRIEKLEEYITTSKQSLEEQKKLEGELTEEVEMAKRRIDEINKELNQVMEQLGDARIDRQESSRQQRKAEIMESIKRLYPGSVYGRLIDLCQPTQKKYQIAVTKVLGKNMDAIIVDSEKTGRDCIQYIKEQRGEPETFLPLDYLEVKPTDEKLRELKGAKLVIDVIRYEPPHIKKALQYACGNALVCDNVEDARRIAFGGHQRHKTVALDGTLFQKSGVISGGASDLKAKARRWDEKAVDKLKEKKERLTEELKEQMKAKRKEAELRQVQSQAHGLQMRLKYSQSDLEQTKTRHLALNLQEKSKLESELANFGPRINDIKRIIQSREREMKDLKEKMNQVEDEVFEEFCREIGVRNIREFEEEKVKRQNEIAKKRLEFENQKTRLGIQLDFEKNQLKEDQDKVHMWEQTVKKDENEIEKLKKEEQRHMKIIDETMAQLQDLKNQHLAKKSEVNDKNHEMEEIRKKLGGANKEMTHLQKEVTAIETKLEQKRSDRHNLLQACKMQDIKLPLSKGTMDDISQEEGSSQGEESVSGSQRTSSIYAREALIEIDYGDLCEDLKDAQAEEEIKQEMNTLQQKLNEQQSVLQRIAAPNMKAMEKLESVRDKFQETSDEFEAARKRAKKAKQAFEQIKKERFDRFNACFESVATNIDEIYKALSRNSSAQAFLGPENPEEPYLDGINYNCVAPGKRFRPMDNLSGGEKTVAALALLFAIHSYKPAPFFVLDEIDAALDNTNIGKVANYIKEQSTCNFQAIVISLKEEFYTKAESLIGVYPEQGDCVISKVLTFDLTKYPDANPNPNEQ
B2: Zfp609 (endogenous) (protein, UniProt Q8BZ47 1-1413)
chain: T1 sequence

What was measured:
[1] = target: Ints1 (mouse (endogenous in NS5 NSCs)) (UniProt Q6P4S8); assay: co-IP; immunoprecipitation of endogenous proteins (Nipbl or Ints1 antibody) from NSC nuclear extract, western blot; Benzonase or ethidium bromide added as indicated; normal mouse IgG or rabbit anti-GFP as control
V5-tagged Zfp609 (mouse) = target: T1, V5-tagged Zfp609 (mouse); assay: co-IP; V5 immunoprecipitates from nuclear extract of Zfp609-V5-expressing NSCs, western blot; Benzonase or ethidium bromide added as indicated; normal mouse IgG or control NSC extract as control
[2] = target: Nipbl (mouse (endogenous in NS5 NSCs)) (UniProt Q6KCD5); assay: co-IP; immunoprecipitation of endogenous proteins (Nipbl or Ints1 antibody) from NSC nuclear extract, western blot; Benzonase or ethidium bromide added as indicated; normal mouse IgG or rabbit anti-GFP as control
[3] = target: Ints1 (mouse (endogenous in NS5 NSCs)) (UniProt Q6P4S8); assay: as above; remark: listed apart in the source

| Molecule | binding [1] | binding (V5-tagged Zfp609 (mouse)) | binding [2] | binding [3] |
| --- | --- | --- | --- | --- |
| Cpsf3l (from UniProt Q9CWS4 1-600) | binds |  |  |  |
| Ints1 (from UniProt Q6P4S8 1-2195) |  | binds |  |  |
| Nipbl (from UniProt Q6KCD5 1-2798) | binds | binds |  |  |
| B1 |  | binds | binds weakly |  |
| B2 |  |  | binds | binds |
